Results are given in words; binding and its absence hold for the method and conditions named. In cells and extracts the contact can be indirect. Some binding calls cover weakened binding; strength is not graded here. Sequences can lack the tags named with a protein.
Biological target: T1, GFP-WRNIP1 (UniProt Q96S55)
T1 sequence: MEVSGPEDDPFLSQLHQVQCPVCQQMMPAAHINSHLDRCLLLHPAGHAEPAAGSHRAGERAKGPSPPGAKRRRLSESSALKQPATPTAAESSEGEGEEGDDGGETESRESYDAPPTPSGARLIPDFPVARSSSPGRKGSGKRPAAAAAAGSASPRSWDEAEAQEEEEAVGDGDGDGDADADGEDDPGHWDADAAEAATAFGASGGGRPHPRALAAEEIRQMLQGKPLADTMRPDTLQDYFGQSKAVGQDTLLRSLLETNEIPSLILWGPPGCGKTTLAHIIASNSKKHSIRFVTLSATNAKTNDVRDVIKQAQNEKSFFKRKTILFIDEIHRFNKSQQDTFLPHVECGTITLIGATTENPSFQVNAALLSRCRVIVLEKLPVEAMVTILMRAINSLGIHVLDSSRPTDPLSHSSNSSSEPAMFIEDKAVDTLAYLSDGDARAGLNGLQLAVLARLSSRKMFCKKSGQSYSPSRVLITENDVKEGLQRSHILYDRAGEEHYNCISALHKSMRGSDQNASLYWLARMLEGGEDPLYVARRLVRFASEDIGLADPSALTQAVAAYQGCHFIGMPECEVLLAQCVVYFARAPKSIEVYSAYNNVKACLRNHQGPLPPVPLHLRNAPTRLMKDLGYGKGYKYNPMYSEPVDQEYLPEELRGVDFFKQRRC
Experiment: co-IP; HEK293T transfected with GFP-tagged proteins for 24 h, lysis in JS buffer with Benzonase, GFP-trap magnetic agarose beads 1 h at 4 °C, western blotting

Chains of the proteins cited; added tags and fusions are not shown.
UniProt Q9UM54: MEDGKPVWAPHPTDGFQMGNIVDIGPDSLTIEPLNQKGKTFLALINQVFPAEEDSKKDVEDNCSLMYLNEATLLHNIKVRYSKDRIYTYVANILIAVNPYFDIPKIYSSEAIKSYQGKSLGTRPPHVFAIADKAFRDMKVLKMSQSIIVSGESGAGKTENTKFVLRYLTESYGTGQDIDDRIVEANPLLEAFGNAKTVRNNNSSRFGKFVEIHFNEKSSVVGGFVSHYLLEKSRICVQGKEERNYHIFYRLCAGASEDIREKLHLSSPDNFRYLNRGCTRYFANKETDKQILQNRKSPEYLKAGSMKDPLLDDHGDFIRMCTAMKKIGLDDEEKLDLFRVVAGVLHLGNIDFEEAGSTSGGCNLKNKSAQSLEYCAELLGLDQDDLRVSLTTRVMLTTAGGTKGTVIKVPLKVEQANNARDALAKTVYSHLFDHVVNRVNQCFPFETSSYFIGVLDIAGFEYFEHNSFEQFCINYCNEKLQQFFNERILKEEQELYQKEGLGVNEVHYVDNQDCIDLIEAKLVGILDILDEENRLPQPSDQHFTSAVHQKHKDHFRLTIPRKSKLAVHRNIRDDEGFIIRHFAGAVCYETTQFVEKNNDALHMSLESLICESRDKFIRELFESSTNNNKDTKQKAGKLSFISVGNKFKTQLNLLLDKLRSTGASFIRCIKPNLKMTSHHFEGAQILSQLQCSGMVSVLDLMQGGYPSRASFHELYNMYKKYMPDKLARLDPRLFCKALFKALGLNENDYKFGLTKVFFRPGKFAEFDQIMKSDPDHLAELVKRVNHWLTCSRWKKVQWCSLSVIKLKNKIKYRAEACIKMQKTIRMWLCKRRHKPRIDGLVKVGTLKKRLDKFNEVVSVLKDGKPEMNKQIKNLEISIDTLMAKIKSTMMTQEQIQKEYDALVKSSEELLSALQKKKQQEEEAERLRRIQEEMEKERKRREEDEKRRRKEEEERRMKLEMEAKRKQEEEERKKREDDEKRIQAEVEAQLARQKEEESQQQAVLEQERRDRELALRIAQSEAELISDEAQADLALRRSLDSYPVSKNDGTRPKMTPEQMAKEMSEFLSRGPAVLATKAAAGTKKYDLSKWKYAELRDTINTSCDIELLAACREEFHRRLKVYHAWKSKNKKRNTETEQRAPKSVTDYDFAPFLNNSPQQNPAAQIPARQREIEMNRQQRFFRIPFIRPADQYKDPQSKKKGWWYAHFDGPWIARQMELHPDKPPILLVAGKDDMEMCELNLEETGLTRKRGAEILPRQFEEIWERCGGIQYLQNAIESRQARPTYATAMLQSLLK

binding: binds
Substance: myosin VI, endogenous in HEK293T (from UniProt Q9UM54 1-1294)
